Measurements: article PMC4932512

Protein sequences, listed by entry. Tags and fused reporters are not part of them. Lines headed by an entry give the natural chain unless they say otherwise; changes in a name come on top.
UniProt Q86Y07: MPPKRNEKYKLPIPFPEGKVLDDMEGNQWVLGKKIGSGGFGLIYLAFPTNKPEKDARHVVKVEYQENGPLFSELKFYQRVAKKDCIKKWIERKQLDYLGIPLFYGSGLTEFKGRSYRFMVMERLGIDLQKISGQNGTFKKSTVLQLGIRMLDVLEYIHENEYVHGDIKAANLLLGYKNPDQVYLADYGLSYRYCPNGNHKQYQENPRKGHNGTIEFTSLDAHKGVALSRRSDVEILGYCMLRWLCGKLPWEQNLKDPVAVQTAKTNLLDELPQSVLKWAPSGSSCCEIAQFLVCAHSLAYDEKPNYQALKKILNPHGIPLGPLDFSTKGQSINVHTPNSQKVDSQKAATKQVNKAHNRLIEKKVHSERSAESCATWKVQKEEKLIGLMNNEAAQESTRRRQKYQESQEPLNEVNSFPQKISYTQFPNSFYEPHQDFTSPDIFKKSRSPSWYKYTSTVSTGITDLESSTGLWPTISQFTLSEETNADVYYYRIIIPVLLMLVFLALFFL
UniProt P49841: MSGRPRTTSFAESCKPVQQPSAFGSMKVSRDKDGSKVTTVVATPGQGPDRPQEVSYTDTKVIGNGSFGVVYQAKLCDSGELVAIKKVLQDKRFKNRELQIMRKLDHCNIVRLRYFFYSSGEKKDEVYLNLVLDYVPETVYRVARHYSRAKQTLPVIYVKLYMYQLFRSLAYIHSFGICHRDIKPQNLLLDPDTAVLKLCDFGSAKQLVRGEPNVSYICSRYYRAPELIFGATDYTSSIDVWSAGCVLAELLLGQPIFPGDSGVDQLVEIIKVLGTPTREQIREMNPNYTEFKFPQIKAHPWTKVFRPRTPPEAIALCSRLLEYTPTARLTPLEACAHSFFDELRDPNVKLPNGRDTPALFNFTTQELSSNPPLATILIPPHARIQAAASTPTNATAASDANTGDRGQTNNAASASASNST

Target: Recombinant Flag-VRK2 purified from E. coli (human) (UniProt Q86Y07)
Test: co-IP; recombinant Flag-VRK2 and GST-GSK3β purified from E. coli; immunoprecipitated with anti-Flag antibody or control IgG; Western blot with anti-GST or anti-Flag; both purified

Substance: Recombinant GST-GSK3β purified from E. coli (from UniProt P49841 1-420) (enzyme)
- binding: binds

Results are given in words; binding and its absence hold for the method and conditions named. Binding seen in cells or lysates may run through a third protein. A result given as binding can be weak or reduced; the word gives no strength.
